Measured values from PubChem BioAssay AID504467 (National Center for Advancing Translational Sciences (NCATS), 2011).
Among all 330,000 compounds or so, about 7,700 (2.3%) were called active. Inconclusive means that the source gave no clear call. Such entries were picked first, then a sample of the others. Calls follow the shape of the dose curve; as a rule, active = well fitted inhibition curve with a large enough effect; inconclusive = small, poorly fitted or top-dose-only effect, or effect the other way; inactive = flat fitted curve, though single readings scatter. Potencies beside an inconclusive call are fits to weak or partial responses and may not hold up.
% is scaled to controls: 0 for no effect and ±100 for the full control effect; potency is read from the fitted curve at half-maximal effect.

Experiment: qHTS screen for small molecules that inhibit ELG1-dependent DNA repair in human embryonic kidney (HEK293T) cells expressing luciferase-tagged ELG1; also: nearly all actives have a fitted effect of over 55% in size
Settings: HEK293T ELG1-luciferase reporter, luminescence, 16 h, DNA damage induced by 5-fluorouridine; activity change, negative = inhibition: at 46.1 µM (top of the series)
In short: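 Overnight (16 hr) co-exposure of 2,000 cells/well to 5-fluorouridine and compound at 37 °C preceded detection. Luciferase was quantified via ONE-Glo luminescence; loss of signal denotes inhibition.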
In the case of `N#Cc1ccc(-c2ccccc2)nc1SCCN1CCOCC1`, the Potency is reported as inconclusive: 20.6 µM [inhibitor, partial curve, poor fit]. For `CCOc1ccc(CN(C(=O)c2cc3ccccc3oc2=O)C2CC2)cc1`, the Potency was inconclusive: 29.1 µM [inhibitor, single point]. With `Cc1ccc(OC(=O)c2ccc3nc(C)sc3c2)cc1` the Potency was inconclusive: 7.3 µM [activator, partial curve]. With `COCc1cc(=O)[nH]c(Nc2nc3ccccc3o2)n1` the Potency was inconclusive: 20.6 µM [activator, partial curve]. In the case of `COC(=O)c1[nH]c2cc(OC)c(OC)cc2c1NC(=O)c1cccc(OC)c1`, the Potency is reported as inconclusive: 18.4 µM [inhibitor, single point]. In the case of `C/C(CC(=O)NC1CCCC1)=N\NC(=O)Cc1csc(N)n1`, the “activity change, negative = inhibition” value is reported as inactive: 0.58%. In the case of `Cc1ccc(S(=O)(=O)/N=C2/NC(=O)/C(=C/c3ccncc3)S2)cc1`, the Potency is reported as inconclusive: 16.4 µM [activator, single point]. With `O=C(CN(Cc1ccco1)C(=O)c1cc(=O)[nH]c2ccccc12)Nc1ccccc1Br` the Potency was active: 20.6 µM. With `COc1ccc(S(=O)(=O)N2CCC3(CC2)OCCN3S(=O)(=O)c2cccs2)cc1` the “activity change, negative = inhibition” value was inactive: -18.9%. For `Cc1ccc2c(c1)C(c1ccncc1)=NNC(c1ccc(C(C)C)cc1)=N2`, the “activity change, negative = inhibition” value was inactive: 9%. With `O=C(CCNS(=O)(=O)c1ccccc1)NNC(=O)COc1ccccc1F` the “activity change, negative = inhibition” value was inactive: 28.8%. For `CCOc1cc(N2CCOCC2)c(OCC)cc1NC(=O)CSc1nccc(C)n1`, the Potency was inconclusive: 16.4 µM [inhibitor, single point]. For `Cc1cc(C)c2c(n1)sc1c(N3CCN(CCO)CC3)ncnc12`, the “activity change, negative = inhibition” value was inactive: -10.4%. For `Cc1ccc(/C=N/NC(=O)c2cc(-c3ccc(C)o3)[nH]n2)cc1`, the Potency was inconclusive: 6.51 µM [inhibitor, partial curve, poor fit]. In the case of `O=C(COc1ccc2ccccc2c1)NNC(=O)Cc1ccccc1`, the “activity change, negative = inhibition” value is reported as inactive: 2.33%. With `COc1ccc(C(=O)COC(=O)c2ccc(N(C)C)cc2)cc1` the “activity change, negative = inhibition” value was inactive: -5.2%. With `O=C(Nc1ccc2[nH]ccc2c1)c1cccs1` the Potency was inconclusive: 8.2 µM [activator, partial curve]. With `Cc1cccn2c(=O)c3cc(C(=O)NCc4ccco4)c(=N)n(C4CCCC4)c3nc12` the “activity change, negative = inhibition” value was inactive: 9.17%. For `CCC(C)C(=O)Nc1ccc(S(=O)(=O)N2CCCC2)cc1` (configuration not stated), the “activity change, negative = inhibition” value was inactive: -11.8%. With `O=C(Nc1ccc(F)cc1)NC1CCN(Cc2c(F)cccc2Cl)CC1` the Potency was inconclusive: 20.6 µM [inhibitor, single point]. In the case of `COc1ccc(OC)c(NS(=O)(=O)c2ccc(Cl)s2)c1`, the Potency is reported as inconclusive: 14.6 µM [inhibitor, partial curve, poor fit]. With `CCCC(=N)C1=C(O)CC(CC(C)SCC)CC1=O` (configuration not stated) the Potency was inconclusive: 14.6 µM [activator, partial curve, poor fit]. In the case of `CC(=Nc1ccc(O)cc1)c1sc2ccccc2c1O`, the Potency is reported as inconclusive: 2.59 µM [activator, full curve]. For `O=C(Oc1c(CN2CCOCC2)cc(Cl)c2cccnc12)c1ccccc1Cl`, the Potency was active: 11.6 µM. In the case of `CC(C)(C)OC(=O)NCCCCCNC(=O)c1[nH]cnc1C(=O)Nc1ccon1`, the Potency is reported as inconclusive: 20.6 µM [inhibitor, single point]. In the case of `CC(NC(=O)CN(C)Cc1ccc(Br)cc1)c1ccccc1` (configuration not stated), the Potency is reported as inconclusive: 11.6 µM [inhibitor, partial curve]. For `Cc1ccc(N2CC(=O)Nc3c(oc4nc(-c5ccccc5)cc(C)c34)C2=O)cc1`, the “activity change, negative = inhibition” value was inactive: 16.2%. In the case of `CCc1ccc(CCC(=O)Nc2ccccc2C(=O)O)o1`, the Potency is reported as inconclusive: 4.61 µM [activator, single point]. For `O=C1NC(Cc2ccc(O)cc2)c2nc3cc(F)ccc3c(=O)n2-c2cc(Cl)ccc21` (configuration not stated), the “activity change, negative = inhibition” value was inactive: 13.9%. For `O=C(Nc1cccc(S(=O)(=O)N2CCCC2)c1)c1cccc(S(=O)(=O)N2CCOCC2)c1`, the Potency was inconclusive: 29.1 µM [inhibitor, single point]. In the case of `CN(C)c1nc(NCc2ccccc2)nc(SCC(=O)Nc2ccccc2Cl)n1`, the Potency is reported as inconclusive: 23.1 µM [inhibitor, single point]. For `COCC(=O)/C=C1\Sc2ccccc2N1C`, the Potency was inconclusive: 18.4 µM [activator, partial curve, poor fit]. With `CC(NC(=O)c1cccc(Cn2cc([N+](=O)[O-])cn2)c1)c1ccc(C(C)(C)C)cc1` (configuration not stated) the Potency was inconclusive: 25.9 µM [inhibitor, single point]. For `O=[N+]([O-])c1cccc2ccc(/C=C/c3ccc(C(F)(F)F)cc3)nc12`, the “activity change, negative = inhibition” value was inactive: -3.82%. In the case of `Cc1cccc(C)c1NC(=S)N(Cc1ccccc1)Cc1cccnc1`, the Potency is reported as inconclusive: 4.11 µM [inhibitor, partial curve, poor fit]. In the case of `Cc1nc2ncnn2c(N2CCN(c3cccc(C(F)(F)F)c3)CC2)c1C`, the Potency is reported as inconclusive: 11.6 µM [inhibitor, partial curve]. With `Cn1ccnc1SCC(=O)Nc1ccc2nc(SCC(=O)NC3CC3)sc2c1` the Potency was inconclusive: 4.61 µM [activator, partial curve]. With `CCOC(=O)Cc1c(C)nc2c(-c3ccc(OC)cc3)c(C)nn2c1C` the Potency was inconclusive: 16.4 µM [inhibitor, single point]. With `O=C(Nc1ccccn1)c1ccc(S(=O)(=O)N2CCCCC2)cc1` the Potency was inconclusive: 5.8 µM [activator, single point]. With `CCOC(=O)C1=C(O)/C(=C/c2cc(OC)c(O)c(OC)c2)SC1=Nc1ccc(OC)cc1` the Potency was inconclusive: 2.31 µM [inhibitor, full curve]. For `c1ccc(-n2cnnc2SCc2cn3ccccc3n2)cc1`, the “activity change, negative = inhibition” value was inactive: -1.82%. In the case of `Cc1nc(N2CCN(C)CC2)c2c3c(sc2n1)CCCC3`, the “activity change, negative = inhibition” value is reported as inactive: 0%. For `S=C(Nc1ccccc1Cl)N1CCCC(c2ccccc2)=N1`, the “activity change, negative = inhibition” value was inactive: 0.416%. In the case of `O=C(Cn1nc(-c2ccccc2)ccc1=O)Nc1ccc(N2CCN(C(=O)c3cccs3)CC2)cc1`, the “activity change, negative = inhibition” value is reported as inactive: -8.1%. For `COC(C(=O)N/N=C(\C)c1ccc(C(C)(C)C)cc1)c1ccccc1` (configuration not stated), the Potency was inconclusive: 23.1 µM [inhibitor, partial curve, poor fit]. With `O=C(c1ccccc1)N1N=C(c2ccccc2O)CC1c1ccccc1` (configuration not stated) the “activity change, negative = inhibition” value was inactive: 12.1%. For `COc1cc(C#Cc2ccc3cc(CCO)oc(=O)c3c2)cc(OC)c1`, the Potency was inconclusive: 2.91 µM [activator, full curve]. In the case of `CN(C)CCn1c(NC(=O)c2ccc(Cl)cc2)nc2ccccc21`, the Potency is reported as inconclusive: 10.3 µM [activator, partial curve]. With `CC1CC(C)CN(C(=O)C(C)N2CCN(S(=O)(=O)c3cccs3)CC2)C1` (configuration not stated) the “activity change, negative = inhibition” value was inactive: -1.19%. With `COc1cc2cc3c(N)c(C(=O)NCc4ccco4)sc3nc2cc1OC` the Potency was inconclusive: 2.59 µM [activator, single point]. For `O=C(CSCc1ccccc1Br)NC1CC1`, the Potency was inconclusive: 20.6 µM [activator, single point]. With `COc1cccc(/C=N/Nc2cc(N3CCOCC3)ncn2)c1O` the Potency was active: 11.6 µM. For `CCCCN(CCCC)CCn1cnc2c([nH]c3ccc(OC)cc32)c1=O`, the “activity change, negative = inhibition” value was inactive: -11.8%. For `CC(C)c1ccc(N=Cc2c(O)c3ccccc3oc2=O)cc1`, the Potency was inconclusive: 20.6 µM [activator, partial curve]. For `CCCN(CCC)S(=O)(=O)c1ccc(C(=O)N2CCC(=O)c3ccccc32)cc1`, the Potency was inconclusive: 16.4 µM [inhibitor, single point]. In the case of `COc1cccc(Nc2ccc(N3CCCCC3)cc2)c1OC`, the Potency is reported as inconclusive: 9.2 µM [activator, partial curve]. In the case of `COc1ccc(C(NC(C)=O)c2cc(Cl)c3cccnc3c2O)cc1` (configuration not stated), the Potency is reported as inconclusive: 35.5 µM [inhibitor, single point]. In the case of `COc1cc2c(cc1OC)C(c1ccc(-c3ccc(Cl)c(Cl)c3)o1)=NCC2`, the Potency is reported as active: 14.6 µM. For `COc1ccccc1CNc1ccc(N2CCCCC2)cc1`, the Potency was inconclusive: 16.4 µM [activator, single point]. In the case of `O=C(CN1C(=O)NC2(CCCC2)C1=O)Nc1cc(S(=O)(=O)N2CCCCC2)ccc1Cl`, the “activity change, negative = inhibition” value is reported as inactive: 4.73%. With `Cc1ccc(/C(O)=C2/C(=O)C(=O)N(CCN3CCOCC3)C2c2ccccn2)cc1` (configuration not stated) the Potency was inconclusive: 16.4 µM [activator, partial curve]. For `C[C@@H]1COC(=O)[C@@H](Cc2ccc(F)cc2)C/C=C\C[C@@H](CC(=O)N(CCO)Cc2ccccc2)C(=O)N1`, the “activity change, negative = inhibition” value was inactive: -23.1%. For `CC1C2=C(CC(C)(C)CC2=O)NC2=C1C(=O)CC(C)(C)C2`, the “activity change, negative = inhibition” value was inactive: 24.8%. For `COc1ccc(OC)c2[nH]c(=O)c(CCNS(=O)(=O)c3ccc(F)cc3)cc12`, the “activity change, negative = inhibition” value was inactive: 3.55%. In the case of `CCOC(=O)[C@@H]1C(c2c(OC)cc(OC)cc2OC)=NO[C@@H]1C(=O)OCC`, the “activity change, negative = inhibition” value is reported as inactive: -0.115%. With `C[C@@H]1CN([C@H](C)CO)C(=O)c2cc(NC(=O)Cc3cn(C)c4ccccc34)ccc2O[C@H]1CN(C)S(=O)(=O)c1ccc(F)cc1` the Potency was inconclusive: 8.2 µM [inhibitor, partial curve]. In the case of `O=C(NNC(=O)c1ccc(Cl)cc1Cl)c1cnccn1`, the “activity change, negative = inhibition” value is reported as inactive: 0%. For `O=C(N/N=C/c1cc([N+](=O)[O-])ccc1O)c1cccc(N2CCCC2=O)c1`, the Potency was active: 11.6 µM. With `N#C/C(=C\c1ccc(N2CCCC2)c([N+](=O)[O-])c1)c1nc2ccccc2[nH]1` the Potency was inconclusive: 16.4 µM [activator, partial curve]. With `Cn1cnnc1SCC(=O)NCCC1=CCCCC1` the Potency was inconclusive: 20.6 µM [activator, partial curve, poor fit]. In the case of `CC(C)c1ccc(/C=N/NC(=O)c2ccccc2Cl)cc1`, the Potency is reported as inconclusive: 29.1 µM [activator, single point]. With `CCOC(=O)C1=CNS(=O)(=O)NC1c1ccccc1` (configuration not stated) the “activity change, negative = inhibition” value was inactive: 9.15%.
